Molecules are shown by their SMILES. Among all 1,400 compounds or so, about 45 (3%) were called active.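 The calls were made as follows: active = half-maximal dose of signal decrease from fit no higher than ten times the top valid tested dose; inconclusive = fit invalid, or curve flat with 30 to 70% inhibition; inactive = the rest.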 Some of the results follow. Entries with a potency or affinity are not part of this list.

The chains behind the UniProt entries cited, without tags or fusion partners. Where a name states a change or a piece, a line headed by the entry shows the natural chain unless it says otherwise.
UniProt O75164: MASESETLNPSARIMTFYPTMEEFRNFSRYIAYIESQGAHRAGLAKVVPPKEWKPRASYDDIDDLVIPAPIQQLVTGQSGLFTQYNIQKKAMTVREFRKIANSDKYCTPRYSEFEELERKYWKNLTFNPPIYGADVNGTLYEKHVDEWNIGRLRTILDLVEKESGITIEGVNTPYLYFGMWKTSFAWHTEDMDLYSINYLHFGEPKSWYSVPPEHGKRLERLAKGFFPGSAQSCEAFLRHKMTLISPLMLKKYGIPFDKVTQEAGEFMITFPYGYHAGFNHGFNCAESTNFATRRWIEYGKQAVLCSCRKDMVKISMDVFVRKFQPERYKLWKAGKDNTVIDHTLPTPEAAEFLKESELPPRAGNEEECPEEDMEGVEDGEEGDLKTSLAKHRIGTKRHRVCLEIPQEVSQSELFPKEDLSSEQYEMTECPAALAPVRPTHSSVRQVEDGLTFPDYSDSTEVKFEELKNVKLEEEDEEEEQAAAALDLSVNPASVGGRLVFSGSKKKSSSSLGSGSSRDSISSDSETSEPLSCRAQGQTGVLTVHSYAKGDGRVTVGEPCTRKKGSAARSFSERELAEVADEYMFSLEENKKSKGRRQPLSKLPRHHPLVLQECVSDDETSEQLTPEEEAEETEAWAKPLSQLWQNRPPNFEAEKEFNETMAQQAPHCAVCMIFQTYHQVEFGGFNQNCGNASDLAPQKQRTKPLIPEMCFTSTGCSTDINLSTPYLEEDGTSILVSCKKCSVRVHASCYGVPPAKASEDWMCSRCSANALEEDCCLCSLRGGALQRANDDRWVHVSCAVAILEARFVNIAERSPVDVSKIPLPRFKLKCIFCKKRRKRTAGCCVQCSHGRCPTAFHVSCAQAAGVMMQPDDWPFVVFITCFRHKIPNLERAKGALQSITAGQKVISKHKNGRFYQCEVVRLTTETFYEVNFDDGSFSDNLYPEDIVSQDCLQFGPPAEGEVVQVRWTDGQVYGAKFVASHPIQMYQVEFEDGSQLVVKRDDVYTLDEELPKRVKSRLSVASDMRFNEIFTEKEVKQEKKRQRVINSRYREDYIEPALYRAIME

This experiment addresses Lysine-specific demethylase 4A (Homo sapiens) (UniProt O75164). In words: inhibition of JMJD2A H3K9me3 demethylation – biochemical, DELFIA europium, cherry-picked samples, selectivity assay for GASC-1 inhibitor project, dose response (AID 488840).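 Also: europium signal reports the dimethyl H3K9 product detected by antibody so inhibitors lower it; 0% = median of neutral control wells and -100% = median of positive control wells.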 The conditions noted are these: GST-JMJD2A(1-420) H3K9me3 demethylation; at 6 µM (top of the series) unless noted.
With `Cc1ccc(S(=O)(=O)NCCC(=O)OCC(=O)Nc2ccccc2Cl)cc1`, the activity change, negative = inhibition is inactive: 4.42%.
Then `COc1ccc(-n2c(C)cc(/C=N/Nc3nnc(C)n3N)c2C)cc1`, with inactive: -11.9%.
The result for `OCC1=C[C@@H](O)[C@@H]2C=CO[C@@H](O[C@@H]3O[C@H](CO)[C@@H](O)[C@H](O)[C@H]3O)[C@H]12` reads inactive: 2.96%.
Then `Nc1nnc(SC2CC(=O)N(c3ccccc3)C2=O)s1` (stereo not given), with inactive: 7.79%.
Turning to `Cc1noc(C)c1NC(=O)N(C)C[C@H]1Oc2ccc(NC(=O)CCC(F)(F)F)cc2C(=O)N([C@H](C)CO)C[C@@H]1C`, the activity change, negative = inhibition is inactive: 10.1%.
Take `C[C@H](CO)N1C[C@H](C)[C@@H](CN(C)Cc2ccc(Cl)c(Cl)c2)Oc2c(NS(=O)(=O)c3cccs3)cccc2C1=O`: the activity change, negative = inhibition is inactive: 0.912%.
The result for `COc1ccc(CCNC(=O)c2ccc(N3CCCCS3(=O)=O)cc2)cc1OC` reads inactive: -0.105%; that for `CC(NC(=O)NNC(N)=S)(C(F)(F)F)C(F)(F)F`, inactive: 1.73%.
Then `CCCNC(=S)Nc1ccc(Nc2ccccc2)cc1`, with inactive: -3.28%.
Then `CCOCCc1nnc(NC(=O)c2ccc(OC)c(OC)c2)s1`, with inactive: -0.873%; and `COc1cc(C)c(/C=C(\C#N)C(=O)Nc2ccc(C)cc2)cc1C(C)C`, with inactive: 6.47%; and `COc1ccc(S(=O)(=O)NCCCCC(=O)O)cc1C(=O)O`, with inactive: -6.28%.
Turning to `O=C(Cc1cccc2ccccc12)N1CCCc2ccccc21`, the activity change, negative = inhibition is inactive: 4.99%.
The result for `Cc1cc(-n2c(SCC(=O)NCc3cccs3)nc3n[nH]c(C)c3c2=N)ccc1Cl` reads inactive: 1.76%; that for `COC(=O)c1cc(S(=O)(=O)NCCCN2CCCC2=O)cn1C`, inactive: 2.09%; that for `CCCC(=O)Nc1nn(C)c2nc3c(C)cccc3cc12`, inactive: 1.33%.
With `COc1ccccc1-n1cnnc1SCC(=O)Nc1ncc(Cl)cc1Cl`, the activity change, negative = inhibition is inactive: 4.36%.
Then `CC(C)(C)OC(=O)N[C@@H](Cc1ccccc1)C(=O)N[C@@H](CO)[C@H](O)[C@@H]1C[C@@H]1C(=O)NC1CCCCC1`, with inactive: -0.462%; and `FC(F)(F)c1ccccc1NC(=S)NN=C1CCCCCC1`, with inactive: 7.26%.
Consider `C[C@@H]1CN([C@H](C)CO)C(=O)c2cc(NC(=O)Nc3ccc(C(F)(F)F)cc3)ccc2O[C@H]1CN(C)S(=O)(=O)c1ccccc1`, for which the activity change, negative = inhibition was inactive: 3.91%.
The result for `COc1ccc(N2CCN(C(=O)Cn3nnc(-c4ccc(N(C)C)cc4)n3)CC2)cc1` reads inactive: -1.55%.
`O=C(NCCCN1CCOCC1)c1cccc(S(=O)(=O)N2CCc3ccccc3C2)c1`: the activity change, negative = inhibition is inactive: 0.16%.
As for `CCCCNC(=O)CC1N=C2c3ccccc3N=C(SCC(=O)Nc3cccc(C)c3)N2C1=O` (stereo not given), the activity change, negative = inhibition was inactive: 1.99%.
Then `O=C(COC(=O)c1ccc(O)cc1)Nc1ccc(Cl)cc1`, with inactive: -3.11%.
The result for `C[C@@H]1CN([C@H](C)CO)C(=O)c2cccc(NS(=O)(=O)c3ccccc3)c2O[C@H]1CN(C)C` reads inactive: 5%; that for `O=C(Nc1ccc(-c2nc3ncccc3o2)cc1)c1ccc(Br)o1`, inactive: -1.12%.
Then `O=C(NCC1CCCO1)c1ccc2c(=O)n(Cc3cccc(Br)c3)c(=S)[nH]c2c1` (stereo not given), with inactive: -0.668%.
For the compound `O=C(Cn1cncn1)NCc1cc(F)ccc1F`, the activity change, negative = inhibition was inactive: 0.641%.
Then `CN(C)S(=O)(=O)c1cccc(NC(=S)NCc2ccc3c(c2)OCO3)c1`, with inactive: -0.0369%; and `COC(=O)c1cc(NC(=O)CSc2nncn2C)cc(C(=O)OC)c1`, with inactive: 0.678%; and `O=C1CCN(Cc2ccc(O)cc2)CCN1[C@H](CO)Cc1ccccc1`, with inactive: 5%.
The result for `Cc1nc2cc(CO)ccc2n1C` reads inactive: 3.76%; that for `O=C(c1cccc(C(F)(F)F)c1)N1CCCC1`, inactive: 0.0679%; that for `O=C(Nc1c(Cl)cccc1Cl)c1cc(-c2ccco2)on1`, inactive: 6.7%.
The result for `Cc1cc(NS(=O)(=O)c2ccc(Nc3nc(-c4sc(N)nc4C)cs3)cc2)no1` reads inactive: 1.78%; that for `CC(C)NC(=O)N(C)C[C@H]1Oc2ccc(NS(=O)(=O)c3ccccc3)cc2C(=O)N([C@H](C)CO)C[C@H]1C`, inactive: -4.62%; that for `O=c1c2ccccc2c(C=NCCCN2CCOCC2)c(O)n1Cc1ccccc1`, inactive: 2.21%.
Regarding `C[C@H](CO)N1C[C@H](C)[C@@H](CN(C)S(=O)(=O)c2cccs2)Oc2c(NC(=O)CCC(F)(F)F)cccc2C1=O`, the activity change, negative = inhibition was inactive: 4.37%.
Then `O=C(CCN1C(=O)/C(=C/c2ccc(F)cc2)SC1=S)N[C@@H](CO)Cc1ccccc1`, with inactive: 3.78%; and `Cn1nnnc1SCC(=O)NCC(=O)c1ccccc1`, with inactive: 2.53%; and `CCN1c2ccccc2-c2nc3ccccc3n2C1c1ccccn1` (stereo not given), with inactive: 4.5%.
Then `O=C(NCc1ccccc1Br)c1cccc2c1C(=O)c1ccc(N3CCC(Cc4ccccc4)CC3)cc1S2(=O)=O`, with inactive: 13.4%; and `OC[C@H]1O[C@@H]2O[C@H]3[C@H](O)[C@@H](O)[C@@H](O[C@H]4[C@H](O)[C@@H](O)[C@@H](O[C@H]5[C@H](O)[C@@H](O)[C@@H](O[C@H]6[C@H](O)[C@@H](O)[C@@H](O[C@H]7[C@H](O)[C@@H](O)[C@@H](O[C@H]1[C@H](O)[C@H]2O)O[C@@H]7CO)O[C@@H]6CO)O[C@@H]5CO)O[C@@H]4CO)O[C@@H]3CO`, with inactive: -0.776%; and `Cc1noc(C)c1COc1ccc(C(=O)OC(C)C(=O)Nc2ccc(N3CCOCC3)cc2)cc1` (stereo not given), with inactive: -3.76%.
Then `Cc1cccc(NC(=O)C2CCCN(S(=O)(=O)c3c(C)nn(C)c3C)C2)n1` (stereo not given), with inactive: -2.26%; and `FC(F)(F)c1cccc(NCc2cn3cccnc3n2)c1`, with inactive: -1.08%; and `Cc1ccc(NC(=O)c2cccc3c2C(=O)N(C2CCCCC2)C3)c(C)c1`, with inactive: -3.71%.
With `C[C@H](CO)N1C[C@H](C)[C@H](CN(C)Cc2ccc(Oc3ccccc3)cc2)Oc2ccc(NC(=O)Nc3cccc4ccccc34)cc2CC1=O`, the activity change, negative = inhibition is inactive: 2.16%.
Then `CCOC(=O)C1=C(C)NC2=C(C(=O)CCC2)C1c1coc2ccccc2c1=O` (stereo not given), with inactive: -2.43%.
In the case of `COc1ccc(NC(=O)N(C)C[C@@H]2Oc3c(NC(=O)Nc4c(C)noc4C)cccc3C(=O)N([C@@H](C)CO)C[C@@H]2C)cc1`, the activity change, negative = inhibition is inactive: 1.31%.

The values are drawn from PubChem BioAssay AID488840 (Broad Institute, 2010).
